# Reference: article PMC12040169 (PLOS Biology, 2025)
# Some of the results follow.
# System: T1, CTL2-GFP (C. trachomatis L2/434/Bu, GFP-expressing)
# T1 construct: L2/434/Bu, GFP-expressing
# Design: species or system HeLa; Intracellular C. trachomatis growth in HeLa cells, bulk GFP fluorescence relative to DMSO
# Details: bulk GFP, single well; 28.5 h, 10 µM; inhibitor
row,Compound,% of control remaining [%]
1,CN1CCN(CC(=O)Nc2ccc([N+](=O)[O-])cc2C(=O)c2ccccc2)CC1 [CBK265772],164.179
2,Cc1noc(C)c1S(=O)(=O)Nc1nc(-c2cccnc2)cs1 [CBK067266],114.658
3,CN(CC1OCCc2ccccc21)C(=O)CCC1CCCO1 (centres unmarked) [CBK282030],128.002
4,O=C1Nc2ccc(S(=O)(=O)NCCCO)c3cccc1c23 [CBK262033],100
5,O=C(Nc1snnc1-c1ccc(Cl)cc1)c1ccco1 [CBK153242],85.0333
6,Cc1ccc(NC(=O)CSc2nnc3c4c5c(sc4nc(-n4nc(C)cc4C)n23)COC(C)(C)C5)cc1 [CBK268675],136.41
7,COc1cncc(-c2cnc3[nH]c(=O)n(C4CCCCC4)c3n2)c1 [CBK064230],91.3417
8,Cc1cc(N2CCN(CC(=O)c3ccc(Cl)cc3)CC2)c2ccccc2n1 [CBK066868],112.554
9,COc1ccc(C(=O)O)cc1S(=O)(=O)Nc1c(-c2cccs2)nc2cc(C)ccn12 [CBK297484],146.764
10,CC(C)Nc1cc(SCCc2ccccn2)ncn1 [CBK105617],87.6623
11,CCN(CC)CC1CCCN(C(=O)CCn2ccc3ccncc32)C1 (centres unmarked) [CBK285174],149.496
12,CCOC(=O)C1=C(CSc2nccn2C)NC(=O)NC1c1ccc2c(c1)OCO2 (centres unmarked) [CBK268746],133.507
13,COc1c(I)cc(Br)cc1/C=N/NC(=O)CC#N [CBK025764],119.072
14,COc1ccnc(N2C[C@@H]3OCC(=O)N(Cc4ccccc4)[C@@H]3C2)n1 [CBK289666],96.5115
15,CC(=O)OC1CCN(C(=O)c2cccc(C#N)c2)CC1 [CBK304648],118.999
16,CC(C)c1ccc(NC(=O)CSc2nnc(CN3CCOCC3)n2C)cc1 [CBK268235],128.95
17,Cc1c(C(c2ccc(C(=O)O)cc2)c2c(C)n(C)n(-c3ccccc3)c2=O)c(=O)n(-c2ccccc2)n1C [CBK261691],113.389
18,CCOC(=O)CC(=O)CSc1nc2nc(C)cc(C)n2n1 [CBK268469],126.448
19,CC(Oc1ccccc1)c1nnc(SCC(=O)Nc2ccc(Br)c(Cl)c2)n1C (centres unmarked) [CBK266299],90.0498
20,O=C(O)CCSc1nnc(-c2cccnc2)n1-c1ccccc1 [CBK268734],106.605
21,O=C(c1cccc(F)c1)N1CCC(c2n[nH]c3ncccc23)CC1 [CBK284907],98.2665
22,Cc1cc(O)ccc1-c1cncc(-c2ccc(O)cc2C)n1 [CBK115689],122.65
23,O=C(c1ccco1)N1CCc2cc(-c3cn4c(n3)CCCC4)ccc21 [CBK282893],112.985
24,CC(=O)Nc1ccc(CNC(=O)CN(C)CC2CCCCO2)cc1 (centres unmarked) [CBK306567],147.918
25,CN(Cc1c(F)cccc1Cl)C(=O)CSc1nc(CC(=O)O)cs1 [CBK296708],121.848

row,Compound,% of control remaining [%]
1,NC(=O)c1ccc(NC(=O)CSc2nnc(-c3ccncc3)n2-c2ccc(Br)cc2)cc1 [CBK266202],132.885
2,Nc1ncnc2c1nc(N)n2[C@H]1C[C@@H](O)[C@@H](CO)O1 [CBK201222],93.3019
3,OCc1ccnc2ccccc12 [CBK001746],126.074
4,CC[C@H]1CN(C(=O)NC(C)C)CC[C@H]1CC(=O)NCc1ccc2c(c1)OCO2 [CBK288775],146.754
5,C=CCNCc1cc2c(C)nn(-c3ccccc3)c2[nH]c1=O [CBK282898],112.607
6,CCOc1ccc(C(C)(N)C(=O)O)cc1 (centres unmarked) [CBK261362],78.2081
7,COc1ccc2nc(NC(=O)c3cccc(N4C(=O)CCC4=O)c3)sc2c1 [CBK287351],124.664
8,COc1ccc(-c2c[nH]c([C@@H]3COCCN3Cc3ccccc3O)n2)cc1 [CBK289296],113.668
9,O=C(Nc1ccc2c(c1)OCO2)c1ccc(-c2ccccc2)nc1NCCc1ccccn1 [CBK076574],103.268
10,O=C(COc1ccc(-c2cc(-c3ccccc3)c3cc(Cl)ccc3n2)cc1)N/N=C/c1ccc2ncccc2c1 [CBK263365],115.623
11,O=C(O)CCC(=O)Nc1ccc2c(c1)Cc1ccccc1-2 [CBK286611],114.468
12,Cc1nc(-c2ccccc2)ccc1C(=O)Nc1nc(CC(N)=O)cs1 [CBK295195],129.484
13,O=C(/C=C/c1ccc(-c2ccccc2[N+](=O)[O-])o1)Nc1ccc(-c2nc3ncccc3o2)cc1 [CBK263434],110.043
14,O=C1c2ccccc2C(=O)N1CCCSc1nnc(-c2ccncc2)n1-c1ccccc1 [CBK263419],102.347
15,CC(C)(C)C1=CC2=NC3(CCCCCC3)[C@@H]3C[C@@H](O)[C@@H](O)[C@@H]3N2O1 [CBK303252],132.715
16,CC(C)NC(=O)c1sc2ccccc2c1C1CCN(S(=O)(=O)c2ccccc2)C1 (centres unmarked) [CBK285927],92.0966
17,Cc1cccc(N(CC(O)CN2C(=O)NC(C)(C)C2=O)S(=O)(=O)c2ccccc2)c1 (centres unmarked) [CBK263582],115.154
18,Cc1csc(C(Cc2cccs2)NC(=O)C2CCOCC2)n1 (centres unmarked) [CBK285006],122.887
19,c1ccc(CNc2nnc(-c3ccccc3)s2)cc1 [CBK074928],59.2586
20,Cc1nc2c(c(=O)[nH]1)CC[C@@H]1CN(C(=O)c3cccs3)C[C@H]21 [CBK284406],123.555
21,COc1ccc2c(c1)CCCN2C(=O)CCn1ccc(C)n1 [CBK282217],104.133
22,NCC(=O)N(CCC1CCCC1)c1cccc2ccccc12 [CBK011922C],114.205
23,CC1CCc2c(sc3ncnc(OCC(=O)N4CCCCC4)c23)C1 (centres unmarked) [CBK304979],94.4638
24,COc1ccc(Cl)cc1NC(=O)CC1NC2CCCCC2NC1=O (centres unmarked) [CBK267318],160.607
25,Fc1ccccc1CN(CCCn1ccnc1)Cc1ccoc1 [CBK283024],121.876

# Copied from the list:
# Under % of control remaining [%], CC(C)(C)C1=CC2=NC3(CCCCCC3)[C@@H]3C[C@@H](O)[C@@H](O)[C@@H]3N2O1 [CBK303252] has the entry 132.715
# Under % of control remaining [%], Cc1cccc(N(CC(O)CN2C(=O)NC(C)(C)C2=O)S(=O)(=O)c2ccccc2)c1 (centres unmarked) [CBK263582] has the entry 115.154
